No constants are given. Whether binding was seen depends on the method and setting. In cells and extracts the contact can be indirect. Here binding means that the protein was enriched with, or labelled near, the bait; the list need not be complete.
Target: SHP2^T42A-TurboID (UniProt Q06124)
Test: proximity labelling; SHP2-TurboID variants against a TurboID-only control in SHP2 knock-out HEK 293 cells; exogenous biotin; biotinylated proteins enriched and identified by mass spectrometry; hits p<0.05 and log2 fold-change >1; cells unstimulated or stimulated with 100 ng/mL EGF; SHP2^WT also after 4 hours with 1 uM TNO155

B1: ACOX1 (enzyme, UniProt Q15067 1-660)
chain: MNPDLRRERDSASFNPELLTHILDGSPEKTRRRREIENMILNDPDFQHEDLNFLTRSQRYEVAVRKSAIMVKKMREFGIADPDEIMWFKKLHLVNFVEPVGLNYSMFIPTLLNQGTTAQKEKWLLSSKGLQIIGTYAQTEMGHGTHLRGLETTATYDPETQEFILNSPTVTSIKWWPGGLGKTSNHAIVLAQLITKGKCYGLHAFIVPIREIGTHKPLPGITVGDIGPKFGYDEIDNGYLKMDNHRIPRENMLMKYAQVKPDGTYVKPLSNKLTYGTMVFVRSFLVGEAARALSKACTIAIRYSAVRHQSEIKPGEPEPQILDFQTQQYKLFPLLATAYAFQFVGAYMKETYHRINEGIGQGDLSELPELHALTAGLKAFTSWTANTGIEACRMACGGHGYSHCSGLPNIYVNFTPSCTFEGENTVMMLQTARFLMKSYDQVHSGKLVCGMVSYLNDLPSQRIQPQQVAVWPTMVDINSPESLTEAYKLRAARLVEIAAKNLQKEVIHRKSKEVAWNLTSVDLVRASEAHCHYVVVKLFSEKLLKIQDKAIQAVLRSLCLLYSLYGISQNAGDFLQGSIMTEPQITQVNQRVKELLTLIRSDAVALVDAFDFQDVTLGSVLGRYDGNVYENLFEWAKNSPLNKAEVHESYKHLKSLQSKL
binding: binds

— paper doi:10.1101/2025.02.26.640373
